Experiment [1] concerns the target cynomolgus IL-1ra (cynomolgus macaque) (UniProt Q866R8). Kind of experiment: SPR, BIACORE 3000, receptor:Fc captured, ligand in flow. (SPR reads the build-up and loss of mass on a sensor chip optically.)
The target in experiment [2] is human IL-1 receptor antagonist (IL-1ra) (human) (UniProt P18510). Nature of the experiment: SPR, BIACORE 3000, receptor:Fc captured on anti-human IgG Fc, ligand in flow.

By UniProt entry, the sequences of proteins in these tests, tags left out. Residues count along the entry.
UniProt Q866R8, residues 26-177: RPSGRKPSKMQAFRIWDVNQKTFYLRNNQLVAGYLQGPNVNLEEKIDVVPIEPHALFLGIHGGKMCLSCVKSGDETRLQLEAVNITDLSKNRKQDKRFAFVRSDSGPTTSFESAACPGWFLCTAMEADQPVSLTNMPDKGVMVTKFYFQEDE
UniProt P18510, residues 26-177: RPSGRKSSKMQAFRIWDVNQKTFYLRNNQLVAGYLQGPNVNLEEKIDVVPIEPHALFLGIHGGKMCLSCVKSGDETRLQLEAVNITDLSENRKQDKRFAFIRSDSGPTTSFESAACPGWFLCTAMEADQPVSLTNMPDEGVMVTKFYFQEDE

These are yes or no findings as the source states them, for the method shown. Some binding calls cover weakened binding; strength is not graded here. Sequences can lack the tags named with a protein.

B1: recombinant human type II IL-1R:Fc (Fc fusion)
chain: FTLQPAAHTGAARSCRFRGRHYKREFRLEGEPVALRCPQVPYWLWASVSPRINLTWHKNDSARTVPGEEETRMWAQDGALWLLPALQEDSGTYVCTTRNASYCDKMSIELRVFENTDAFLPFISYPQILTLSTSGVLVCPDLSEFTRDKTDVKIQWYKDSLLLDKDNEKFLSVRGTTHLLVHDVALEDAGYYRCVLTFAHEGQQYNITRSIELRIKKKKEETIPVIISPLKTISASLGSRLTIPCKVFLGTGTPLTTMLWWTANDTHIESAYPGGRVTEGPRQEYSENNENYIEVPLIFDPVTREDLHMDFKCVVHNTLSFQTLRTTVKE
notes: also called human IL-1RII:Fc; soluble recombinant human type II IL 1R:Fc; not shown: Fc portion of human IgG
In the case of B1, the binding entry in experiment [1] and in experiment [2] was “binds” throughout.

The values are drawn from patent US20030049255A1 (published 2003).
